In US20150374663A1 one finds binding data, which are given here for two molecules.

In experiment [1] the target is type V tartrate-resistant acid phosphatase (TRAP) protein, immobilised on CM5 sensor chip. Briefly: SPR, TRAP amine-coupled to CM5 chip, peptide in solution. Background: SPR reads the build-up and loss of mass on a sensor chip optically.
Experiment [2] shares this target. Briefly: SPR, TRAP-functionalized surface, peptide in solution (Table 1 series; KD cell printed N/A).
For experiment [3] the target is unchanged. Briefly: SPR, TRAP-functionalized surface (n = 2).
Experiment [4] has the same target. Briefly: SPR, TRAP immobilised on a CM5 chip, peptide injected.
For experiment [5] the target is unchanged. Briefly: SPR, TRAP-functionalized surface.

These are yes or no findings as the source states them, for the method shown. For some assays here: Binding can be weak; no strength is given.

For the molecule VPVGTLSYLKLTG [scrambled control peptide (SCP), …], the binding result in experiment [1], in experiment [2] and in experiment [3] was “no binding” throughout.

With TPLSYLKGLVTVG [TRAP-binding peptide (TBP), …], the binding entry in experiment [4] and in experiment [5] was “binds” each time.
